Library screening results

Amino acid sequences for entries named in this document (tags omitted).
UniProt E9BF75, entry or part of it: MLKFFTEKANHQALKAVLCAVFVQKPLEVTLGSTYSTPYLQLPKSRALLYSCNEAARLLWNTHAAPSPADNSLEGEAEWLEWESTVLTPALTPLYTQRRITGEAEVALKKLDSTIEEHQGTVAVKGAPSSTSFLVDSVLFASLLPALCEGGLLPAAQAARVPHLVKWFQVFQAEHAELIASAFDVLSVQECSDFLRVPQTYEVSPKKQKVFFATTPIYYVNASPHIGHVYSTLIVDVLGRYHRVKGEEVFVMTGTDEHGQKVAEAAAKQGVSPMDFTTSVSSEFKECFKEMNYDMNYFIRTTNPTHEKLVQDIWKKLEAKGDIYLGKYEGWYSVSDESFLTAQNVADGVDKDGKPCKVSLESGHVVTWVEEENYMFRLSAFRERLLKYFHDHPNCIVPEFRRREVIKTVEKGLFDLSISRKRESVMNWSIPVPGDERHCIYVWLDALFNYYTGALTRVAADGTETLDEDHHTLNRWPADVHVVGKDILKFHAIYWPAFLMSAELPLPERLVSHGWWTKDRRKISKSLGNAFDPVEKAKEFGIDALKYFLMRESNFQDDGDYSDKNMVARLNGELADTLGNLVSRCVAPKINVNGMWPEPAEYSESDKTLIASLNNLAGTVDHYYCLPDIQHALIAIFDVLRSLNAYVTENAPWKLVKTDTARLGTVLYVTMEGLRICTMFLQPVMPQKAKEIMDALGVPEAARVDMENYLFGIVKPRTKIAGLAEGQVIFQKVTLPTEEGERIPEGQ

A: 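Methionyl-tRNA synthetase (putative), Leishmania donovani (UniProt E9BF75). Primary screen of methionyl-tRNA synthetase; the read-out is not stated. The test concentration is not given. The values are filed as inhibition. Size under these conditions: about 68,000 compounds, about 24 of them at 50% or above in at least one test.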
B: 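Assay on Mycobacterium tuberculosis, filed only as a heat shock assay from Cornell; the read-out is not stated. The concentration is filed as 10 mM, unlikely as a test dose, so the dose is not known. The record gives no direction; compounds that gave an IC50 in retests scored well above the rest, so higher reads as stronger inhibition. About 69,000 compounds were tested under these conditions; 1.4% (about 930) showed 50% or more at least once.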

All values are in %.
How 0% and 100% were set is not recorded. Most values in the screen are low, and negative values occur.
Compounds were drawn at random from those tested, without regard to their results.
A dash means the value is not listed here; it may have been measured.

compound | A | B
Fc1cccc(-c2nc(CN3CCCC3Cn3cncn3)co2)c1 (configuration not stated) | 5.422% | -12.83%
[H][C@@]12CNC[C@]1([H])CN(C(=O)C1CCCC1)C2 | - | -12.11%
CC[C@@H]1N(Cc2ccco2)CCC[C@]12CCC(=O)N2C.O=C(O)C(F)(F)F | - | -19.47%
CS(=O)(=O)NCC1CCN(C(=O)Oc2ccccc2)CC1 | 8.696% | 6.714%
Cc1cccc(C(C)(C)NC(=O)CCS(C)(=O)=O)c1 | 17.87% | -3.911%
Cn1cc(CN2CCCCC2c2ccc(-c3cccc(Cl)c3)nc2)cn1 (configuration not stated) | 17.46% | 15.88%
O=C(O)C(F)(F)F.O=C(O)C(F)(F)F.O=C(c1cccnc1)N1CCn2cc(CN3CCCC3)nc2C1 | - | -0.9523%
O=C(Cc1c[nH]c2ccccc12)NCC1CCN(Cc2c[nH]cn2)C1 (configuration not stated) | 15.22% | -10.26%
Cc1cc(=O)n2ncnc2n1CC(O)c1ccccc1Cl (configuration not stated) | 14.79% | 6.198%
NC(=O)CN(Cc1ccc(Br)cc1)C(=O)c1cccnc1 | 8.527% | -47.67%
CS(=O)(=O)N1CCC2(CN(C(=O)c3cccnc3)C2)C1.O=C(O)C(F)(F)F | - | 10.22%
Cc1ccc(CN(C)C(=O)c2scnc2C)cc1 | 10.93% | 15.18%
CCc1n[nH]c(C2CN(C(=O)c3cscn3)CCO2)n1 (configuration not stated) | -0.5525% | -20.03%
Cc1cccnc1CN1CCN(C[C@]2(O)CCCN3CCCC[C@@H]32)CC1 | 10.05% | -
O=C(CC1CC1)NCc1cn2c(n1)CN(Cc1cccnc1)CC2 | 14.92% | -
O=C1C[C@@H]2[C@H](CCN2Cc2ccccn2)N1Cc1ccncc1 | 15.13% | -
[H][C@]12CC[C@](O)(CC1)C(COC)N2C(=O)Nc1ccccc1 (some centres not stated) | - | 17.63%
COCCC1(CO)CCCN(C(=O)CCC(F)(F)F)C1 (configuration not stated) | 6.091% | 23.23%
COc1ccc(-c2cccc(-c3ccn(CCCN(C)C)n3)c2)nn1 | 4.02% | 9.91%
CS(=O)(=O)N1C[C@@H]2CC[C@H](C1)N(Cc1ccc3nsnc3c1)C2 | 11.35% | -
NC(=O)c1cc2c(nc1Oc1ccc(CN3CCCC3)cc1F)CCC2 | 7.886% | 13.57%
O=C(Cn1cncn1)NCC1CCN(Cc2ccccc2Cl)CC1 | 11.34% | -2.255%
Cc1ccc(C(=O)N(C)Cc2cc(Br)cs2)cn1 | 20.28% | 26.93%
CCCn1cc(S(=O)(=O)N(C)Cc2nonc2C)c(C)n1 | 18.09% | -1.632%
Cc1noc(CNc2ccc(OC(F)F)cc2OC(F)F)n1 | 11.59% | -3.822%
Cc1cccc(-c2ccc(C(=O)NCC3CCCO3)c(=O)[nH]2)c1 (configuration not stated) | 12.78% | -1.912%
O=C(O)C(F)(F)F.O=C(O)C(F)(F)F.[H][C@@]12COC[C@]1(CNS(=O)(=O)CC)CN(Cc1cccnc1OC)C2 | - | -11.43%
Cc1cc(SC(C)(C)C)ccc1NC(C)C(=O)NC(N)=O (configuration not stated) | 1.045% | -11.97%
Cl.NC1(c2nc(C(F)(F)F)cc(=O)[nH]2)CCCCC1 | - | -30.2%
N#Cc1ccnc(NCc2cc3n(n2)CCCN(C(=O)C2CCC2)C3)c1 | 14.72% | -15.23%
CCCS(=O)(=O)N1CCOC2(CCCN(Cc3ccccn3)C2)C1 (configuration not stated) | 7.104% | -
O=C(c1cc(C2CC2)[nH]n1)N1CCCN(c2nccs2)CC1 | 6.983% | 5.649%
COc1ccccc1C(O)Cn1cc(C(=O)NCC2CC2)nn1 (configuration not stated) | 15.11% | 10.54%
Cc1ccc(CN[C@@H]2COC[C@H]2c2ccc(F)cc2)cc1C.O=C(O)CC(O)(CC(=O)O)C(=O)O | - | -6.111%
Cc1cc(C)nc(C2CCN(C(=O)CCn3nnc4ccccc43)C2)n1 (configuration not stated) | 13.55% | -12.52%
Cc1noc(C2CCN(C(C)c3nc(C(C)(C)C)no3)CC2)n1 (configuration not stated) | 14.25% | -14.06%
Cc1ccc2nc(C)cc(C(=O)NC(C)c3nnn[nH]3)c2c1 (configuration not stated) | 14.58% | 14.02%
O=S(=O)(C1CC1)N1CCC2(COCc3cnc(-c4cccnc4)nc32)C1 (configuration not stated) | 13.44% | -1.795%
Cc1occc1-c1nnc2n1NC(N)=C(C#N)S2 | 12.24% | -12.52%
COc1cc(OC)cc(C(=O)N2CCOCC2c2[nH]ncc2C)c1 (configuration not stated) | 9.006% | -18.28%
Nc1ncccc1C(=O)NCc1ccc(Br)cc1 | 7.429% | -9.812%
Cn1cc(-c2nnn3c2COC(CNCc2cccnc2)C3)cn1 (configuration not stated) | 7.5% | 0.7802%
Cc1cncc(C2CCCN(CC3CCC3)C2)n1 (configuration not stated) | 9.647% | -18.56%
O=C(NCC1COCc2c(-c3ccncc3)nnn2C1)[C@H]1CCCO1 (some centres not stated) | -1.253% | -
COc1cccc(OCCNCc2c(C)nn(C)c2N(C)C)c1 | 19.39% | 7.671%
O=C(c1ccc(CN2CCCC2)cc1)N1CCCC(n2cccn2)C1 (configuration not stated) | - | -9.6%
COCC1c2nnn(CC3CC3)c2CCN1C(=O)c1cccn1C (configuration not stated) | 2.405% | -13.06%
COCC(=O)Nc1ccc(-c2noc([C@@H]3CCCN3CC(C)C)n2)cn1 | 3.297% | 10.46%
Cc1cccc(N2CCOCC3(C2)CN(c2cnn(C)c2)C(=O)CO3)n1.O=C(O)C(F)(F)F (configuration not stated) | - | -26.32%
CCN(CC)Cc1cn2c(n1)CN(C1CCOC1)CC2 (configuration not stated) | 9.645% | -

Once more, the final 6:

{"compound": "COc1cccc(OCCNCc2c(C)nn(C)c2N(C)C)c1", "A": 19.39, "B": 7.671}
{"compound": "O=C(c1ccc(CN2CCCC2)cc1)N1CCCC(n2cccn2)C1", "stereo": "configuration not stated", "B": -9.6}
{"compound": "COCC1c2nnn(CC3CC3)c2CCN1C(=O)c1cccn1C", "stereo": "configuration not stated", "A": 2.405, "B": -13.06}
{"compound": "COCC(=O)Nc1ccc(-c2noc([C@@H]3CCCN3CC(C)C)n2)cn1", "A": 3.297, "B": 10.46}
{"compound": "Cc1cccc(N2CCOCC3(C2)CN(c2cnn(C)c2)C(=O)CO3)n1.O=C(O)C(F)(F)F", "stereo": "configuration not stated", "B": -26.32}
{"compound": "CCN(CC)Cc1cn2c(n1)CN(C1CCOC1)CC2", "stereo": "configuration not stated", "A": 9.645}

The values are deposited in ChEMBL (CHEMBL3988442, “University of Dundee, Small-Polar-MMV Screening Library” (2021)).